According to article PMC11898958, “Application of Biomimetic Chromatography and QSRR Approach for Characterizing Organophosphate Pesticides” (International Journal of Molecular Sciences, 2025):
Some entries repeat one wording, which the source may state once for all of them.

Conditions: heat map and hierarchical analysis of auto-scaled CHIC18, CHIIAM and HSA data; classes low, medium, high

Compound: CCOP(=S)(OCC)SCn1nnc2ccccc2c1=O [Azinphos-ethyl]
- bioaccumulation potency (group from hierarchical analysis): high bioaccumulation potency

Compound: COP(=S)(OC)SCn1nnc2ccccc2c1=O [Azinphos-methyl]
- bioaccumulation potency (group from hierarchical analysis): medium bioaccumulation potency

Compound: CCOP(=O)(OCC)OC(=CCl)c1ccc(Cl)cc1Cl [Chlorfenvinphos]
- bioaccumulation potency (group from hierarchical analysis): medium bioaccumulation potency

Compound: CCOP(=S)(OCC)Oc1cc(C)nc(C(C)C)n1 [Diazinon]
- bioaccumulation potency (group from hierarchical analysis): medium bioaccumulation potency

Compound: COP(=O)(OC)OC=C(Cl)Cl [Dichlorvos]
- bioaccumulation potency (group from hierarchical analysis): low bioaccumulation potency

Compound: CCOP(=S)(OCC)SCCSCC [Disulfoton]
- bioaccumulation potency (group from hierarchical analysis): high bioaccumulation potency

Compound: COP(=S)(OC)Oc1ccc([N+](=O)[O-])c(C)c1 [Fenitrothion]
- bioaccumulation potency (group from hierarchical analysis): high bioaccumulation potency

Compound: COP(=S)(OC)Oc1ccc(SC)c(C)c1 [Fenthion]
- bioaccumulation potency (group from hierarchical analysis): high bioaccumulation potency

Compound: CCOC(=O)N(C)C(=O)CSP(=S)(OCC)OCC [Mecarbam]
- bioaccumulation potency (group from hierarchical analysis): medium bioaccumulation potency

Compound: COP(=O)(OC)OC(Br)C(Cl)(Cl)Br (stereo not shown) [Naled]
- bioaccumulation potency (group from hierarchical analysis): low bioaccumulation potency

Compound: CCOP(=O)(OCC)Oc1ccc([N+](=O)[O-])cc1 [Paraoxon-ethyl]
- bioaccumulation potency (group from hierarchical analysis): low bioaccumulation potency

Compound: COP(=S)(OC)Oc1ccc([N+](=O)[O-])cc1 [Parathion-methyl]
- bioaccumulation potency (group from hierarchical analysis): medium bioaccumulation potency

Compound: CCOP(=S)(OCC)SCSCC [Phorate]
- bioaccumulation potency (group from hierarchical analysis): high bioaccumulation potency

Compound: COP(=S)(OC)SCN1C(=O)c2ccccc2C1=O [Phosmet]
- bioaccumulation potency (group from hierarchical analysis): medium bioaccumulation potency

Compound: CCOP(=S)(OCC)Oc1cnc2ccccc2n1 [Quinalphos]
- bioaccumulation potency (group from hierarchical analysis): high bioaccumulation potency

Compound: Chlorpyrifos-oxon
- bioaccumulation potency (group from hierarchical analysis): low bioaccumulation potency
